PubChem BioAssay AID1508597 – Cure First | 2020
This is a random part of the about 2,100 reagents, under one of the conditions tested. 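Calls flag viability under 80% in either arm, not effects specific to rucaparib; the reference for percent is not stated.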 A reagent listed more than once was tested more than once; the source does not tell the runs apart. Not stated in the record: the 100% reference.

Assay: 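Genes whose silencing sensitises or protects ovarian cancer cells against rucaparib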 (primary screen)
Cell system: human ovarian carcinoma lines grown from tumours: OCI-P5x (papillary serous) and OCI-C5x (clear cell)
Knock-down reagent: siRNA pool against human genes, 1.25 pmol siRNA per well
Timing: 72 h or 96 h, depending on the cell culture
Conditions: rucaparib 20 µM (about IC30) or vehicle, present until read-out
Rucaparib or vehicle: Vehicle
Cell line: OCI-C5x (clear cell)
Read-out: 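Luminescent ATP-based viability assay read 72 or 96 h after transfection, depending on culture, given as normalised percent viability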
Scale: viability, normalised: higher = more viable cells remaining
Active means: 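Active when normalised viability falls below 80 percent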
Calls: active = viability under 80%; inactive = viability 80% or more

With PKMYT1 (GeneID 9088), technical replicate 1, the values are viability, normalised (%) = 63.2; active.
For PKMYT1 (GeneID 9088), technical replicate 2, the values are viability, normalised (%) = 50.6; active.
For PKMYT1 (GeneID 9088), technical replicate 3, the entry reads viability, normalised (%) = 49; active.
With PIM1 (GeneID 5292), technical replicate 1, the entry reads viability, normalised (%) = 69.1; active.
With PIM1 (GeneID 5292), technical replicate 2 the deposit lists viability, normalised (%) = 52.5; active.
With PIM1 (GeneID 5292), technical replicate 3 the deposit lists viability, normalised (%) = 60.3; active.
PRKDC (GeneID 5591), technical replicate 1 gave viability, normalised (%) = 65; active.
PRKDC (GeneID 5591), technical replicate 1 gave viability, normalised (%) = 73.7; active.
PRKDC (GeneID 5591), technical replicate 2 showed viability, normalised (%) = 62.4; active.
For PRKDC (GeneID 5591), technical replicate 2 the deposit lists viability, normalised (%) = 50.3; active.
With PRKDC (GeneID 5591), technical replicate 3, the values are viability, normalised (%) = 60.9; active.
For PRKDC (GeneID 5591), technical replicate 3 the deposit lists viability, normalised (%) = 44.1; active.

Single entries from above:
PIM1 (GeneID 5292), technical replicate 2, viability, normalised (%): 52.5
Under “viability, normalised (%)”, PKMYT1 (GeneID 9088), technical replicate 2 has 50.6
Under “viability, normalised (%)”, PIM1 (GeneID 5292), technical replicate 3 reads 60.3

Additional entries:
With NTHL1 (GeneID 4913), technical replicate 1, the entry reads viability, normalised (%) = 89.3; inactive.
With NTHL1 (GeneID 4913), technical replicate 2, the values are viability, normalised (%) = 34; active.
For NTHL1 (GeneID 4913), technical replicate 3, the entry reads viability, normalised (%) = 29.5; active.
For MAP2K7 (GeneID 5609), technical replicate 1 the deposit lists viability, normalised (%) = 53.6; active.
MAP2K7 (GeneID 5609), technical replicate 1 scored viability, normalised (%) = 53.8; active.
MAP2K7 (GeneID 5609), technical replicate 2 gave viability, normalised (%) = 58.1; active.
MAP2K7 (GeneID 5609), technical replicate 2 gave viability, normalised (%) = 64.3; active.
For MAP2K7 (GeneID 5609), technical replicate 3, the entry reads viability, normalised (%) = 47.3; active.
MAP2K7 (GeneID 5609), technical replicate 3 gave viability, normalised (%) = 58.9; active.
